Measurements as given in patent US20080207501A1.
These are yes or no findings as the source states them, for the method shown. Some binding calls cover weakened binding; strength is not graded here.

By UniProt entry, the sequences of proteins in these tests, tags left out. Where a name states a change or a piece, a line headed by the entry shows the natural chain unless it says otherwise. Residues count along the entry.
UniProt Q16602: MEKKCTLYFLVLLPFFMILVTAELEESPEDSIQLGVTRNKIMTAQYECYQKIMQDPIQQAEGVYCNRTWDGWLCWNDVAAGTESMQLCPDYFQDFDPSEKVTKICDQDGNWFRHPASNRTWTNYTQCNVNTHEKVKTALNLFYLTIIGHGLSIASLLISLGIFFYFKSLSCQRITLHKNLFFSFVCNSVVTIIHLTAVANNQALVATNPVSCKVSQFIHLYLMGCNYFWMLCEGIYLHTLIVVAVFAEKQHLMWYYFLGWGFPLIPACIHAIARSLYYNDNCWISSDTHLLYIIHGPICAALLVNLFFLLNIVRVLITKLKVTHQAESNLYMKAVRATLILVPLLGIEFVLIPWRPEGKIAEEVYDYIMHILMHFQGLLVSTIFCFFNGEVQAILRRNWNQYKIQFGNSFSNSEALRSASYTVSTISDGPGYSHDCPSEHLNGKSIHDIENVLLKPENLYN
UniProt P12969, residues 38-74: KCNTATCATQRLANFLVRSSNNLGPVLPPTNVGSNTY

Target: CGRP receptor (membranes prepared from SK-N-MC cells) (UniProt Q16602)
Assay: radioligand displacement, 125I-hCGRP, SK-N-MC cell membranes

In the case of “rat amylin (from UniProt P12969 38-74) (peptide)”, the binding is reported as “binds”.
